Experiment [1] deals with DGK1-GFP (Arabidopsis thaliana) (UniProt Q39017). Nature of the experiment: co-IP.
For experiment [2], the target named is DGK1, full length, tagged to GFP or RFP (FRET) (Arabidopsis thaliana) (UniProt Q39017). Nature of the experiment: FRET or BRET. (BRET reads energy transfer from a luciferase to a nearby fluorophore.)

By UniProt entry, the sequences of proteins in these tests, tags left out.
UniProt Q39017: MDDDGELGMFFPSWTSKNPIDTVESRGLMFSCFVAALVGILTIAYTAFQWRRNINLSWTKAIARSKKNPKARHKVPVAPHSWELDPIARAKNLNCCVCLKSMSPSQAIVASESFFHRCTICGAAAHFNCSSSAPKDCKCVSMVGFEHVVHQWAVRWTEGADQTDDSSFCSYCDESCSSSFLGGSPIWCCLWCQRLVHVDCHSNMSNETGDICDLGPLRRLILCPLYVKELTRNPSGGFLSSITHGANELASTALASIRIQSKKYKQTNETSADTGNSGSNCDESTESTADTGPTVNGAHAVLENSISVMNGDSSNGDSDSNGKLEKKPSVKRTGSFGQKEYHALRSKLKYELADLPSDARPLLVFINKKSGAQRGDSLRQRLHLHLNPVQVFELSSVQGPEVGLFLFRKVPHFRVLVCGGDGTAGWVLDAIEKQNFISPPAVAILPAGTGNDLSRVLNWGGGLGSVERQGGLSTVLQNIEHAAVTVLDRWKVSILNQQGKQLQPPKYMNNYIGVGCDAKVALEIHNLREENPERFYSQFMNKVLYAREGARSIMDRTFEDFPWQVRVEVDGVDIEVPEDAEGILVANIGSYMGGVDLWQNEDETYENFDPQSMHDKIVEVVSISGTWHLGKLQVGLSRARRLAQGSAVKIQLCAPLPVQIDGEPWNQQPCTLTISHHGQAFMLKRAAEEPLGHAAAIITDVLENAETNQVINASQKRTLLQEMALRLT
UniProt Q9FFN7: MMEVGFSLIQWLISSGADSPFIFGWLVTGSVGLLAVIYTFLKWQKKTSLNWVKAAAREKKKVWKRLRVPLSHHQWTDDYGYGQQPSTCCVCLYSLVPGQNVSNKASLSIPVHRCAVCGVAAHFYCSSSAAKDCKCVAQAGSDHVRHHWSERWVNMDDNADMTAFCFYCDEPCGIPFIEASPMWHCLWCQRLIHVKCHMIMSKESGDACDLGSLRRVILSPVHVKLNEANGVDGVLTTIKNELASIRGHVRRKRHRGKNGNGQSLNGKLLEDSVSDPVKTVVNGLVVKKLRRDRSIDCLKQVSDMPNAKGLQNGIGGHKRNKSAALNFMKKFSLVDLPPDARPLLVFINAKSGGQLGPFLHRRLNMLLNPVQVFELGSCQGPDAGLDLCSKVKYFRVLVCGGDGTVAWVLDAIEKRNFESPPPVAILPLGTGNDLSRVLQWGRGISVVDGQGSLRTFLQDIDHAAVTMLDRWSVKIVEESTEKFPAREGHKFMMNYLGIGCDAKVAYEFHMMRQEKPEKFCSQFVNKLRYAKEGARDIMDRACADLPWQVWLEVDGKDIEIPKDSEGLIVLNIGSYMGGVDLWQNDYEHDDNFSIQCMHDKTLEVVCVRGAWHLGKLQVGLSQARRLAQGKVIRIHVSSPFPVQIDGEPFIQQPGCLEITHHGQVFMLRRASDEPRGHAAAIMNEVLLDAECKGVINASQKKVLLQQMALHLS

Results are given in words; binding and its absence hold for the method and conditions named. Binding seen in cells or lysates may run through a third protein. Some binding calls cover weakened binding; strength is not graded here.

Turning to DGK2-RFP (from UniProt Q9FFN7 1-712), the binding result in experiment [1] is on record as “binds”.
Consider “DGK2, full length, tagged to GFP or RFP (FRET) (from UniProt Q9FFN7 1-712)”, for which, in experiment [2], the binding entry is listed as “binds”.
